Data published in the supplement of paper PMC12819154, “High-throughput peptide-centric local stability assay extends protein–ligand identification to membrane proteins, tissues and bacteria” (Nature Structural & Molecular Biology, 2025).
Some of the results follow. Most entries show no effect beyond the scatter of the controls.

The chains behind the UniProt entries cited, without tags or fusion partners. Where a name states a change or a piece, a line headed by the entry shows the natural chain unless it says otherwise.
UniProt P0AAS3: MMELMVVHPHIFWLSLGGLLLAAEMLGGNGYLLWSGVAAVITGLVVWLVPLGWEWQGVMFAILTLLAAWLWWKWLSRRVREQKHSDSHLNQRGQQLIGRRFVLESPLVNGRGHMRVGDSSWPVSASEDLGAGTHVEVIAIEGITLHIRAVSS
UniProt P0AAR8: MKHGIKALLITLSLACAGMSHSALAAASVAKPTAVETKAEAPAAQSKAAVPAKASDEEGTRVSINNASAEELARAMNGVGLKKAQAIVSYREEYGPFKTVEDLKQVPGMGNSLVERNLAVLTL
UniProt P0ACP7: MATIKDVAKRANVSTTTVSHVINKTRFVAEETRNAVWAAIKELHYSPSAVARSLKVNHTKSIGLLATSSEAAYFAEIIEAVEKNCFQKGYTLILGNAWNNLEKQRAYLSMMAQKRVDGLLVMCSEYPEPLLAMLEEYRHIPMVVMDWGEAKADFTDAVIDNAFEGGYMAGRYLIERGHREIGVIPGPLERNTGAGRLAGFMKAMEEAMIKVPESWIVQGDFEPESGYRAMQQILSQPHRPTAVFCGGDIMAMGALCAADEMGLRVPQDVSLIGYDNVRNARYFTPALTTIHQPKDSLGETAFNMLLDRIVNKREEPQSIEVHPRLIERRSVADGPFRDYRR
UniProt P0A9U6: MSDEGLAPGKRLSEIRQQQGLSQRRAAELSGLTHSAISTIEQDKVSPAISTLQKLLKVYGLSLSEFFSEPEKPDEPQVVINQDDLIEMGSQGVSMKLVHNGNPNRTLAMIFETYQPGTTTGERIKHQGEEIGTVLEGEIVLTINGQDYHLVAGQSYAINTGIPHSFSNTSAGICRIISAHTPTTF
UniProt P0AAC8: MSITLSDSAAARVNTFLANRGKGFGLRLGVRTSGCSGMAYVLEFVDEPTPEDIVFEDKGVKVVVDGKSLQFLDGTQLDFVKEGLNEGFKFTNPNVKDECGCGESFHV
UniProt P0AAS7: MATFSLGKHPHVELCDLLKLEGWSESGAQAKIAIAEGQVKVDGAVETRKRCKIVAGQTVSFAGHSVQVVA
UniProt P0AAC4: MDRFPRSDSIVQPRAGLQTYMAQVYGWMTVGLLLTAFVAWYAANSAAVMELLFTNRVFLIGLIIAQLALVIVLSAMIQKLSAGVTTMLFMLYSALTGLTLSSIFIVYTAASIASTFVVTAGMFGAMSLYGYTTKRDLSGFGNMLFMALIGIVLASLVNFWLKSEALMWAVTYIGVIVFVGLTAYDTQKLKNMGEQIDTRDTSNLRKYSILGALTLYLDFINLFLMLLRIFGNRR
UniProt P0ABL3: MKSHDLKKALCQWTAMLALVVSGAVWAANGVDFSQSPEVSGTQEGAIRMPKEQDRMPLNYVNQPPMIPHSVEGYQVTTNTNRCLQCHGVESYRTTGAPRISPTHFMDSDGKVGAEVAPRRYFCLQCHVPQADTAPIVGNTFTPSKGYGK
UniProt P0ABZ4: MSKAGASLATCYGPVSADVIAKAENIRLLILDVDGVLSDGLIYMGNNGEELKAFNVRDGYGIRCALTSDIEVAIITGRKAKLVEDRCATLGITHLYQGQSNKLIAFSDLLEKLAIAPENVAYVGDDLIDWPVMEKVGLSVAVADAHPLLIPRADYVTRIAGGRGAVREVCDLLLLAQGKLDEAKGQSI
UniProt P0ABR5: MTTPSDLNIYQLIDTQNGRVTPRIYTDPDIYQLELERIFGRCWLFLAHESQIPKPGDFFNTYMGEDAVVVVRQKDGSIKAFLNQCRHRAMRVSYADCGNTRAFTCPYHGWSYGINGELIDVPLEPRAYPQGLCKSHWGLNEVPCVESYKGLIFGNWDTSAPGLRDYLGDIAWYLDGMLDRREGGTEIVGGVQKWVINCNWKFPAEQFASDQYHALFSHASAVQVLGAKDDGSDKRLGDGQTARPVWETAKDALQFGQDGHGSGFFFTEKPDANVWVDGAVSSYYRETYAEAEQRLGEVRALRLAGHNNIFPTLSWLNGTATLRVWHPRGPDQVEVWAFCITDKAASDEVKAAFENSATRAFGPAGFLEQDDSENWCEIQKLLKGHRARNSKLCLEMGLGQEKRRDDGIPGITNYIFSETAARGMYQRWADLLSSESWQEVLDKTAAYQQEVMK
UniProt P0ACV4: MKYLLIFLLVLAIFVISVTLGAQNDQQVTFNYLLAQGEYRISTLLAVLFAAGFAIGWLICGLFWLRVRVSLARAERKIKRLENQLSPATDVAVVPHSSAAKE
UniProt P0ACW4: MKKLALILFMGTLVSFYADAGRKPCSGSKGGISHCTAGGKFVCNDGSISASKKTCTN
UniProt P0ABF6: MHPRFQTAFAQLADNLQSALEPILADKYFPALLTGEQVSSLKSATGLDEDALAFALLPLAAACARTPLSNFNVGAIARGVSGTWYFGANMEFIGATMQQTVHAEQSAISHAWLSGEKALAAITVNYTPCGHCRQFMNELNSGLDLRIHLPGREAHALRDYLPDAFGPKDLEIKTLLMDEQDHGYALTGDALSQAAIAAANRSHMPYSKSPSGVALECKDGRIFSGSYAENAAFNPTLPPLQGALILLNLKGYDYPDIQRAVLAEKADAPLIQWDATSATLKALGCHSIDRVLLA
UniProt P0A9V8: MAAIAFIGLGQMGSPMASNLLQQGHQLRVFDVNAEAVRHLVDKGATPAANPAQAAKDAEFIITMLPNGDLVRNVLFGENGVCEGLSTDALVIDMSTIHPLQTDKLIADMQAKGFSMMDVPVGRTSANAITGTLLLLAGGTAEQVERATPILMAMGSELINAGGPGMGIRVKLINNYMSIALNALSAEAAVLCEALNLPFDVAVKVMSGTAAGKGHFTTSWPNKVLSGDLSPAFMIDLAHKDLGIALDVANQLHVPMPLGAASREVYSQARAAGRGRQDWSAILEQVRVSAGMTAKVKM
UniProt P0ACX3: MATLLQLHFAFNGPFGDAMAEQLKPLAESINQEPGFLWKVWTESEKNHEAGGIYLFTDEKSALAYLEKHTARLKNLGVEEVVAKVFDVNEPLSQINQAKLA
UniProt P0A9P6: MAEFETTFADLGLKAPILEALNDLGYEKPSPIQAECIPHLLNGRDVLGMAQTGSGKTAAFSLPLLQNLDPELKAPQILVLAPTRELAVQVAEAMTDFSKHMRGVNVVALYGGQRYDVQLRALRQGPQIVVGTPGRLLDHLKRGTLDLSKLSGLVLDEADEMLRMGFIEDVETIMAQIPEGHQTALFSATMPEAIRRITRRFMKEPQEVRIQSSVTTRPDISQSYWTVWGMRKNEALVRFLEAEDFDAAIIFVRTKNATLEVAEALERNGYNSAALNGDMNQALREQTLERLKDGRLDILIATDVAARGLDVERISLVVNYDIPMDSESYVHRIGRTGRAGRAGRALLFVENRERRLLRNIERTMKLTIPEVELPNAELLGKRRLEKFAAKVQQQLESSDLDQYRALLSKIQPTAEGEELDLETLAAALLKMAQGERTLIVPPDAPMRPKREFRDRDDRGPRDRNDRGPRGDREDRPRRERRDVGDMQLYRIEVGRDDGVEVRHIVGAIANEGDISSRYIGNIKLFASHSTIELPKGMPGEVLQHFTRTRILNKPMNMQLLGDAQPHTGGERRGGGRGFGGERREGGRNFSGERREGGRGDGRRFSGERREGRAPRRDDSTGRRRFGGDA
UniProt P0AAG8: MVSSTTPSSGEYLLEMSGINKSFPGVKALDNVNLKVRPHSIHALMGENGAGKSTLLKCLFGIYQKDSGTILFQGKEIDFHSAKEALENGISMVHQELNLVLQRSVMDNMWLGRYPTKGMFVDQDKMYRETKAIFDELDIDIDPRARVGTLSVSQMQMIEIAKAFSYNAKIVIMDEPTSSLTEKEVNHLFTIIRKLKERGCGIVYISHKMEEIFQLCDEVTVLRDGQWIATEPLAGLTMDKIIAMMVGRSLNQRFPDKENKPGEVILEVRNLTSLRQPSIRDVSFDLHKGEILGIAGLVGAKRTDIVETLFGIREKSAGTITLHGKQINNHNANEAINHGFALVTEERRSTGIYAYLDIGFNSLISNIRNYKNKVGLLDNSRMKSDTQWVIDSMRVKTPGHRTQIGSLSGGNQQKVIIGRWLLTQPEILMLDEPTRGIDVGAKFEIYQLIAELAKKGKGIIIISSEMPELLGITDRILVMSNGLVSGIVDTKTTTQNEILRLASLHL
UniProt P0ACV2: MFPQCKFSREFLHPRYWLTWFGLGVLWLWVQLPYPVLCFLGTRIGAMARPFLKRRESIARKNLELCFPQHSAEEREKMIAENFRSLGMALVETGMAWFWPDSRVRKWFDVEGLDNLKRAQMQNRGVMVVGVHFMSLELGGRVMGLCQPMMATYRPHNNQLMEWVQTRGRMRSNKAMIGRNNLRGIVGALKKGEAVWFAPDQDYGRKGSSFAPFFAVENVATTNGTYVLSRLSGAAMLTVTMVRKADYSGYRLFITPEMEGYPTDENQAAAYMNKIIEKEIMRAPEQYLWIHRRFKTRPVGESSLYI
UniProt P0ACK2: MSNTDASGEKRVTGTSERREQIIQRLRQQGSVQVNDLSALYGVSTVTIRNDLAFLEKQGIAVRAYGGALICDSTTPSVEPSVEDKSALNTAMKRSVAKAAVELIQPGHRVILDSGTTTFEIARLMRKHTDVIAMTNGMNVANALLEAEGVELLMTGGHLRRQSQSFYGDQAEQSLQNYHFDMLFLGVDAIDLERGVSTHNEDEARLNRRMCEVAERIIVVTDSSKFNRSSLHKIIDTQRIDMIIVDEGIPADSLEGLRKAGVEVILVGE
UniProt P0AA80: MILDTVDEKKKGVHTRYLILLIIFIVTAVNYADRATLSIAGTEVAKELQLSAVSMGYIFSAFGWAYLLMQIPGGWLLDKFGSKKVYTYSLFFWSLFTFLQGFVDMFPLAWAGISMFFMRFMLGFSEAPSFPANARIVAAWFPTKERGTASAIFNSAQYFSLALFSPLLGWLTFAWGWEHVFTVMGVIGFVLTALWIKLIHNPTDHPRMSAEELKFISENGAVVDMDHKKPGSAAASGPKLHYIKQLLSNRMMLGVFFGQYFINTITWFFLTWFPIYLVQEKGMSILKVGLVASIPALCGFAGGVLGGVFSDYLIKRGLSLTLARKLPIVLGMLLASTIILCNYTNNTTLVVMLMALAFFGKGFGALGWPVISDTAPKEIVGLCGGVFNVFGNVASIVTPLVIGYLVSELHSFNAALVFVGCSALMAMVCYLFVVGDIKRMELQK
UniProt P0AB26: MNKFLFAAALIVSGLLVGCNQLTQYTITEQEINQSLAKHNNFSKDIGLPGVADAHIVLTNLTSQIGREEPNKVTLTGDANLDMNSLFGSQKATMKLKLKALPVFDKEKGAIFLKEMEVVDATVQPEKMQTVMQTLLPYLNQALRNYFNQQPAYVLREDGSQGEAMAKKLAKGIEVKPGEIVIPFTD
UniProt P0AB77: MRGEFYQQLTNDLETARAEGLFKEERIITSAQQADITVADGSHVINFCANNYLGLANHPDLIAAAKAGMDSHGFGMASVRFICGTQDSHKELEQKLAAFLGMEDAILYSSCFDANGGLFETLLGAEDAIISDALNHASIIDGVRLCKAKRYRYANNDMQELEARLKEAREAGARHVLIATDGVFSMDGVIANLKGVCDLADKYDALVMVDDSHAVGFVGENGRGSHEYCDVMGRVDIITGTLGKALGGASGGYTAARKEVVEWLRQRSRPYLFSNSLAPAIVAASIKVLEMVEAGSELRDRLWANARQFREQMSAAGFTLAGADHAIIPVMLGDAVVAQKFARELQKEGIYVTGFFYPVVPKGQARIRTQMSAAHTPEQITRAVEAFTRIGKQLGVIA
UniProt P0ACM2: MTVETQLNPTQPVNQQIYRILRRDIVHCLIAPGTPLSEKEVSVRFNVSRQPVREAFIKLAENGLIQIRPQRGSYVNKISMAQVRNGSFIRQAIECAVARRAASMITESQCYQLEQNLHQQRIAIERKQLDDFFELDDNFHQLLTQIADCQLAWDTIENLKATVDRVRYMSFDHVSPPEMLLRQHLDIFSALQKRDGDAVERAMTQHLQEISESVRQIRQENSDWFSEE

compound: CC1(C)S[C@@H]2[C@H](NC(=O)[C@H](N)c3ccccc3)C(=O)N2[C@H]1C(=O)O [ampicillin]; test: log2 fold change of tryptic peptide abundance, ligand vs vehicle (limited proteolysis) (log2 ratio); higher = more trypsin-susceptible (destabilized); conditions: ligand concentration: 10 uM; sample: E. coli crude lysate

Target	log2 fold change
UniProt P0AAS3 (peptide sequence: HSDSHLNQR, peptide start residue: 84)	-0.18
UniProt P0AAR8 (peptide sequence: ASDEEGTR, peptide start residue: 54)	0.441
UniProt P0ACP7 (peptide sequence: NAVWAAIK, peptide start residue: 34)	-0.132
UniProt P0A9U6 (peptide sequence: QQQGLSQR, peptide start residue: 17)	-0.103
UniProt P0AAC8 (peptide sequence: EGLNEGFK, peptide start residue: 82)	0.149
UniProt P0AAS7 (peptide sequence: HPHVELCDLLKLEGWSESGAQAK, peptide start residue: 9)	0.236
UniProt P0AAC4 (peptide sequence: SDSIVQPR, peptide start residue: 7)	0.0326
UniProt P0ABL3 (peptide sequence: ISPTHFMDSDGK, peptide start residue: 100)	0.0796
UniProt P0ABZ4 (peptide sequence: EVCDLLLLAQGK, peptide start residue: 168)	0.392
UniProt P0ABR5 (peptide sequence: VSYADCGNTR, peptide start residue: 92)	-0.522
UniProt P0ACU0 (peptide sequence: LLTQDDTVNLSK, peptide start residue: 109)	-0.161
UniProt P0ACV4 (peptide sequence: RLENQLSPATDVAVVPHSSAAKE, peptide start residue: 80)	-0.275
UniProt P0ACW4 (peptide sequence: FVCNDGSISASK, peptide start residue: 41)	0.472
UniProt P0ABF6 (peptide sequence: SPSGVALECK, peptide start residue: 209)	-0.286
UniProt P0A9V8 (peptide sequence: GRQDWSAILEQVR, peptide start residue: 275)	0.332
UniProt P0ACX3 (peptide sequence: NLGVEEVVAK, peptide start residue: 75)	-0.156
UniProt P0ACD8 (peptide sequence: AHEAQWAAGK, peptide start residue: 456)	0.308
UniProt P0A9P6 (peptide sequence: NATLEVAEALER, peptide start residue: 256)	0.196
UniProt P0AAG8 (peptide sequence: DSGTILFQGK, peptide start residue: 66)	-0.352
UniProt P0AAR3 (peptide sequence: STGYLVGGISPLGQKKR, peptide start residue: 95)	-0.619
UniProt P0ACV2 (peptide sequence: IGAMARPFLK, peptide start residue: 44)	-0.148
UniProt P0ACK2 (peptide sequence: MCEVAER, peptide start residue: 210)	-0.308
UniProt P0AA80 (peptide sequence: IVAAWFPTK, peptide start residue: 136)	-0.26
UniProt P0AB26 (peptide sequence: EDGSQGEAMAKK, peptide start residue: 157)	-0.766
UniProt P0AB77 (peptide sequence: ALGGASGGYTAAR, peptide start residue: 245)	-0.235
UniProt P0ACM2 (peptide sequence: LAENGLIQIR, peptide start residue: 59)	0.397
